We go through 2 molecules from article PMC9213445.

Sequences of proteins named here, by UniProt entry; tags and fusion partners are left off.
UniProt P31153: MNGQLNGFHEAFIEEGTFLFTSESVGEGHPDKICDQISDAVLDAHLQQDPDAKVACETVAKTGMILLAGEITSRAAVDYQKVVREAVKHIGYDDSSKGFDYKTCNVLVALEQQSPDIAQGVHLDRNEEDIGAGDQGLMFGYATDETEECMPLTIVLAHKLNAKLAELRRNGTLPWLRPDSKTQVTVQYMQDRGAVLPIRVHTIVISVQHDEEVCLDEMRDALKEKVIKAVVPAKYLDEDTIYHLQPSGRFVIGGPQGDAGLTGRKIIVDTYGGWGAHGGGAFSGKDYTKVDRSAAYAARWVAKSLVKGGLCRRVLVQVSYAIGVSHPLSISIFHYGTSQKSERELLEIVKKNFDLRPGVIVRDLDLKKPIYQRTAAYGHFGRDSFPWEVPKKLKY

The target of the experiment is Flag-MAT2A (methionine adenosyltransferase 2A; protein name MATIIα) (human) (UniProt P31153). As to the kind of experiment: affinity purification with mass spectrometry; TAP-MS: Flag-tagged plasmid transfected into HEK293T, 48 h; lysis in 0.3% NP-40 (150 mM NaCl, 50 mM Tris, pH 7.5); Flag beads at 4 °C for 4 h; SDS-PAGE, gel cut for mass spectrometry.

No constants are given. Whether binding was seen depends on the method and setting. In cells and extracts the contact can be indirect. Here binding means that the protein was enriched with, or labelled near, the bait; the list need not be complete.

B1: valosin-containing protein p97/p47 complex-interacting protein (VCIP135), found in the TAP-MS (enzyme, UniProt Q96JH7 1-1222)
chain: MSQPPPPPPPLPPPPPPPEAPQTPSSLASAAASGGLLKRRDRRILSGSCPDPKCQARLFFPASGSVSIECTECGQRHEQQQLLGVEEVTDPDVVLHNLLRNALLGVTGAPKKNTELVKVMGLSNYHCKLLSPILARYGMDKQTGRAKLLRDMNQGELFDCALLGDRAFLIEPEHVNTVGYGKDRSGSLLYLHDTLEDIKRANKSQECLIPVHVDGDGHCLVHAVSRALVGRELFWHALRENLKQHFQQHLARYQALFHDFIDAAEWEDIINECDPLFVPPEGVPLGLRNIHIFGLANVLHRPIILLDSLSGMRSSGDYSATFLPGLIPAEKCTGKDGHLNKPICIAWSSSGRNHYIPLVGIKGAALPKLPMNLLPKAWGVPQDLIKKYIKLEEDGGCVIGGDRSLQDKYLLRLVAAMEEVFMDKHGIHPSLVADVHQYFYRRTGVIGVQPEEVTAAAKKAVMDNRLHKCLLCGALSELHVPPEWLAPGGKLYNLAKSTHGQLRTDKNYSFPLNNLVCSYDSVKDVLVPDYGMSNLTACNWCHGTSVRKVRGDGSIVYLDGDRTNSRSTGGKCGCGFKHFWDGKEYDNLPEAFPITLEWGGRVVRETVYWFQYESDSSLNSNVYDVAMKLVTKHFPGEFGSEILVQKVVHTILHQTAKKNPDDYTPVNIDGAHAQRVGDVQGQESESQLPTKIILTGQKTKTLHKEELNMSKTERTIQQNITEQASVMQKRKTEKLKQEQKGQPRTVSPSTIRDGPSSAPATPTKAPYSPTTSKEKKIRITTNDGRQSMVTLKSSTTFFELQESIAREFNIPPYLQCIRYGFPPKELMPPQAGMEKEPVPLQHGDRITIEILKSKAEGGQSAAAHSAHTVKQEDIAVTGKLSSKELQEQAEKEMYSLCLLATLMGEDVWSYAKGLPHMFQQGGVFYSIMKKTMGMADGKHCTFPHLPGKTFVYNASEDRLELCVDAAGHFPIGPDVEDLVKEAVSQVRAEATTRSRESSPSHGLLKLGSGGVVKKKSEQLHNVTAFQGKGHSLGTASGNPHLDPRARETSVVRKHNTGTDFSNSSTKTEPSVFTASSSNSELIRIAPGVVTMRDGRQLDPDLVEAQRKKLQEMVSSIQASMDRHLRDQSTEQSPSDLPQRKTEVVSSSAKSGSLQTGLPESFPLTGGTENLNTETTDGCVADALGAAFATRSKAQRGNSVEELEEMDSQDAEMTNTTEPMDHS
B1: the binding entry is recorded as “binds”.

B2: RNF138 (protein, UniProt Q8WVD3 1-245)
chain: MAEDLSAATSYTEDDFYCPVCQEVLKTPVRTTACQHVFCRKCFLTAMRESGAHCPLCRGNVTRRERACPERALDLENIMRKFSGSCRCCAKQIKFYRMRHHYKSCKKYQDEYGVSSIIPNFQISQDSVGNSNRSETSTSDNTETYQENTSSSGHPTFKCPLCQESNFTRQRLLDHCNSNHLFQIVPVTCPICVSLPWGDPSQITRNFVSHLNQRHQFDYGEFVNLQLDEETQYQTAVEESFQVNI
Take B2: the binding entry is reported as “binds”.
